Experimental data taken from paper PMC6177440.
These are yes or no findings as the source states them, for the method shown. In cells and extracts the contact can be indirect. Some results given as binding are weak or reduced against the parent protein; the word gives no strength. Where a sequence is shown, tags or fusion partners need not be part of it.

Sequences of proteins named here, by UniProt entry; tags and fusion partners are left off.
UniProt P10238: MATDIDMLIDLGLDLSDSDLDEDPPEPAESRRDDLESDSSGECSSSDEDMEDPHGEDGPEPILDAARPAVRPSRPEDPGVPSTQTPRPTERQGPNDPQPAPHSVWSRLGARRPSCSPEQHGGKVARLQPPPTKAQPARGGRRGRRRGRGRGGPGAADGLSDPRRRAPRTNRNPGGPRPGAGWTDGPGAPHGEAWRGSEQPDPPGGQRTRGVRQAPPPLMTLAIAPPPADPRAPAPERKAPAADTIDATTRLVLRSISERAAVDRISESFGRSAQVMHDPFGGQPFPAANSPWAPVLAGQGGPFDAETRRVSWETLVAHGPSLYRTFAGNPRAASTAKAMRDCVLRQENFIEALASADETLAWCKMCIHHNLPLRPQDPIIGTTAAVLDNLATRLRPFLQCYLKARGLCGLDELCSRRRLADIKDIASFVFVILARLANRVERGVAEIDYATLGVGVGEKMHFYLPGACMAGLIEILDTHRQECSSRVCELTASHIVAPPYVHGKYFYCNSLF

Biological target: HSV-1 ICP27 (wild type, from HSV-1 KOS infection) (HSV-1 (strain KOS)) (UniProt P10238)
Assay: co-IP; HeLa cells transfected with Flag-tagged UIF constructs, infected 24 h later with HSV-1 KOS, WRL or ΔRGG (MOI 10) for 8 h; lysates (treated or not treated with RNase) immunoprecipitated with anti-ICP27 antibody P1119 on protein-G Dynabeads; blots probed with anti-Flag

B1: Flag-epitope tagged UIF N-terminal region (residues 1-190) (domain or fragment, UniProt Q96QD9 1-190)
chain: MNRFGTRLVGATATSSPPPKARSNENLDKIDMSLDDIIKLNRKEGKKQNFPRLNRRLLQQSGAQQFRMRVRWGIQQNSGFGKTSLNRRGRVMPGKRRPNGVITGLAARKTTGIRKGISPMNRPPLSDKNIEQYFPVLKRKANLLRQNEGQRKPVAVLKRPSQLSRKNNIPANFTRSGNKLNHQKDTRQAT
In the case of B1, the binding is reported as “binds”.

B2: Flag-epitope tagged UIF full length (residues 1-318) (protein, UniProt Q96QD9 1-318)
chain: MNRFGTRLVGATATSSPPPKARSNENLDKIDMSLDDIIKLNRKEGKKQNFPRLNRRLLQQSGAQQFRMRVRWGIQQNSGFGKTSLNRRGRVMPGKRRPNGVITGLAARKTTGIRKGISPMNRPPLSDKNIEQYFPVLKRKANLLRQNEGQRKPVAVLKRPSQLSRKNNIPANFTRSGNKLNHQKDTRQATFLFRRGLKVQAQLNTEQLLDDVVAKRTRQWRTSTTNGGILTVSIDNPGAVQCPVTQKPRLTRTAVPSFLTKREQSDVKKVPKGVPLQFDINSVGKQTGMTLNERFGILKEQRATLTYNKGGSRFVTVG
For B2, the binding was “binds”.
